Measured values reported in paper PMC9789103.
Results are given in words; binding and its absence hold for the method and conditions named. Binding seen in cells or lysates may run through a third protein. These calls come from enrichment with a bait or labelling near it, and not all partners need be listed. For some of these results: A no says only that the protein was not detected with the bait. Sequences can lack the tags named with a protein.

Chains of the proteins cited; added tags and fusions are not shown.
UniProt P51960: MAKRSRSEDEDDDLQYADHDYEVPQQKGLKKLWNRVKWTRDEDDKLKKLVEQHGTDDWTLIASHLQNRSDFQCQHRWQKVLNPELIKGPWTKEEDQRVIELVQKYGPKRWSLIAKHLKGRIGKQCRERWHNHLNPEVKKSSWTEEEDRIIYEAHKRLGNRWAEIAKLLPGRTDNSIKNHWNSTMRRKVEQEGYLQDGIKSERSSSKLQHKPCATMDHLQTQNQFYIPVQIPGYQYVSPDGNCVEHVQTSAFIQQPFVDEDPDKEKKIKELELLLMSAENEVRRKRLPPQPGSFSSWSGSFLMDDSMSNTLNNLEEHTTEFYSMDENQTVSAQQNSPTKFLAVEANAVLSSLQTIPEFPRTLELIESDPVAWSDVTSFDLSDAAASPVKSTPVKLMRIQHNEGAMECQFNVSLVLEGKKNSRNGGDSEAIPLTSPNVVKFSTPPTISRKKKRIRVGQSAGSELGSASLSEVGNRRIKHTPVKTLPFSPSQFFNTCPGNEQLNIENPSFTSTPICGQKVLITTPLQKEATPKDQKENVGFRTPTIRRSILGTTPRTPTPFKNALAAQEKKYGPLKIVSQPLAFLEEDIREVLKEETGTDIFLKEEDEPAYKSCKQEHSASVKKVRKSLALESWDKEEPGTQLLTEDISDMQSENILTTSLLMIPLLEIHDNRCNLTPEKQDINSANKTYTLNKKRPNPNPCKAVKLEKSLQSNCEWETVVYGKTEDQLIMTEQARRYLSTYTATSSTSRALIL

T1: TESMIN-BioID2-3xFLAG (mouse) (UniProt Q9WTJ6)
T1 sequence: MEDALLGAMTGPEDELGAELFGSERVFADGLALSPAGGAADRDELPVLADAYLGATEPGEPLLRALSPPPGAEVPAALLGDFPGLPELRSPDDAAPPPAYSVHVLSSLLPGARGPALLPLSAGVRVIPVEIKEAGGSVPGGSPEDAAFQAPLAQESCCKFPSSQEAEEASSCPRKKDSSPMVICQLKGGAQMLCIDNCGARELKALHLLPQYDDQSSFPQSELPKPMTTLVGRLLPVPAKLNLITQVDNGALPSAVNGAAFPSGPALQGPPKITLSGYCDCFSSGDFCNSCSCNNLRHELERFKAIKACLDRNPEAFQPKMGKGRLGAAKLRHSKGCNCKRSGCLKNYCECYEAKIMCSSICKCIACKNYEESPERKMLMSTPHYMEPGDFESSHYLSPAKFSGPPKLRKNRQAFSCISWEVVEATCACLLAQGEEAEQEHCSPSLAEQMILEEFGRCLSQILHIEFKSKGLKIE

T2: TESMIN-TurboID-3xFLAG (mouse) (UniProt Q9WTJ6)
T2 sequence: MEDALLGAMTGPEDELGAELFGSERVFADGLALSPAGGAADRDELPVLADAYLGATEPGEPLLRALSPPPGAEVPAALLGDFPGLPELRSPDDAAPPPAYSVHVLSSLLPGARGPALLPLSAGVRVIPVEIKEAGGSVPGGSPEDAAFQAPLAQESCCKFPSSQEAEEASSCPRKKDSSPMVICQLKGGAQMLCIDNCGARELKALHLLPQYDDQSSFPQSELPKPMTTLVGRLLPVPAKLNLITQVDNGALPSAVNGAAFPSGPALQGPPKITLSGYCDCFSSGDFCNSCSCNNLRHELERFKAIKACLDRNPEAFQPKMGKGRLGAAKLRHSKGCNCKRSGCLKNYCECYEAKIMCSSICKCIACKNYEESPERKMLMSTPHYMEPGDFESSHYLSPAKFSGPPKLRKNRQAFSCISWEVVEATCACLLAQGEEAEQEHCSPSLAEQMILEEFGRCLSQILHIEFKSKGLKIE


Key:
[1] = target: T1, TESMIN-BioID2-3xFLAG (mouse); assay: affinity purification with mass spectrometry; anti-FLAG immunoprecipitation (Protein G magnetic beads) from NP40 lysate of BioID2-Tg positive Tesmin KO mice, WT as control, two mice per group; LC-MS/MS; SAINT analysis
[2] = target: T1, TESMIN-BioID2-3xFLAG (mouse); assay: proximity labelling; TESMIN-BioID2; streptavidin pull-down of biotinylated proteins, immunoblot for MYBL1, LIN9, DVL2
[3] = target: T2, TESMIN-TurboID-3xFLAG (mouse); assay: proximity labelling; TESMIN-TurboID in testicular germ cells of TurboID-Tg positive mice; TGCs incubated in 500 μM biotin medium for 1 h; streptavidin bead pull-down of biotinylated proteins, LC-MS/MS
[4] = target: T1, TESMIN-BioID2-3xFLAG (mouse); assay: proximity labelling; TESMIN-BioID2 in testicular germ cells of BioID2-Tg positive KO (also Het) mice; TGCs incubated in 50 µM biotin medium 16 h at 34 °C, or fresh TGCs, or mice injected with biotin 24 μg/g for 3 days; streptavidin bead pull-down of biotinylated proteins, LC-MS/MS; WT as control; SAINT analysis

| Molecule | binding [1] | binding [2] | binding [3] | binding [4] |
| --- | --- | --- | --- | --- |
| MYBL1 (from UniProt P51960 1-751) | binds | binds | binds | binds |
| DVL2 (protein, UniProt Q60838 1-736) MAGSSAGGGGVGETKVIYHLDEEETPYLVKIPVPAERITLGDFKSVLQRPAGAKYFFKSMDQDFGVVKEEISDDNARLPCFNGRVVSWLVSSDTPQPEVAPPAHESRTELVPPPPPLPPLPPERTSGIGDSRPPSFHPNVSSSHENLEPETETESVVSLRRDRPRRRDSSEHGAGGHRPGGPSRLERHLAGYESSSTLMTSELESTSLGDSDEDDTMSRFSSSTEQSSASRLLKRHRRRRKQRPPRMERTSSFSSVTDSTMSLNIITVTLNMEKYNFLGISIVGQSNERGDGGIYIGSIMKGGAVAADGRIEPGDMLLQVNDMNFENMSNDDAVRVLRDIVHKPGPIVLTVAKCWDPSPQAYFTLPRNEPIQPIDPAAWVSHSAALTGAFPAYPGSSSMSTITSGSSLPDGCEGRGLSVHMDMASVTKAMAAPESGLEVRDRMWLKITIPNAFLGSDVVDWLYHHVEGFPERREARKYASGLLKAGLIRHTVNKITFSEQCYYVFGDLSGGCESYLVNLSLNDNDGSSGASDQDTLAPLPGATPWPLLPTFSYQYPAPHPYSPQPPPYHELSSYTYGGGSASSQHSEGSRSSGSTRSDGGAGRTGRPEERAPESKSGSGSESELSSRGGSLRRGGEPGGTGDGGPPPSRGSTGAPPNLRALPGLHPYGAPSGMALPYNPMMVVMMPPPPPPVSTAVQPPGAPPVRDLGSVPPELTASRQSFHMAMGNPSEFFVDVM |  |  | no binding |  |

The next lines start with the values.

| binding [1] | binding [2] | binding [3] | binding [4] | Molecule |
| --- | --- | --- | --- | --- |
| binds | binds | binds | binds | LIN9 (protein, UniProt Q8C735 1-542) MAELDQLPDESSSAKALVSLKEGSLSNTWNEKYSSLQKTPVWKGRNAGPAVEMPFRNSKRSRLFSDEDDRQINTKSPKRNQRVAMIPQKFTATMSTPDKKASQKIGFRLRNLLKLPKAHKWCIYEWFYSNIDKPLFEGDNDFCVCLKESFPNLKTRKLTRVEWGKIRRLMGKPRRCSSAFFEEERSALKQKRQKIRLLQQRKVADVSQFKDLPDEIPLPLVIGTKVTARLRGIHDGLFTGQIDAVDTLNATYRVTFDRTGLGTHTIPDYEVLSNEPHETMPISAFGQKQRPSRFFMTPPRLHYTPPLQSPITDGDPLLGQSPWRSKVSGSDTETLGGFPVEFLIQVTKLSKILMIKKEHIKKLREMNTEAEKLKSYSMPIGIEFQRRYATIVLELEQLNKDLNKVLHKVQQYCYELAPDQGLQPADQPTDMRRRCEEEAQEIVRQANSASGQPCVENENLTDLISRLTAILLQIKCLAEGGDLNSFEFKSLTDSLNDIKNTIDASNISCFQNNVEIHVAHIQSGLSQMGNLHAFAANNTNRD |
|  |  | no binding |  | disheveled segment polarity protein 1 (DVL1) (protein, UniProt P51141 1-695) MAETKIIYHMDEEETPYLVKLPVAPERVTLADFKNVLSNRPVHAYKFFFKSMDQDFGVVKEEIFDDNAKLPCFNGRVVSWLVLAEGAHSDAGSQGTDSHTDLPPPLERTGGIGDSRPPSFHPNVASSRDGMDNETGTESMVSHRRERARRRNRDEAARTNGHPRGDRRRDLGLPPDSASTVLSSELESSSFIDSDEEDNTSRLSSSTEQSTSSRLVRKHKCRRRKQRLRQTDRASSFSSITDSTMSLNIITVTLNMERHHFLGISIVGQSNDRGDGGIYIGSIMKGGAVAADGRIEPGDMLLQVNDVNFENMSNDDAVRVLREIVSQTGPISLTVAKCWDPTPRSYFTIPRADPVRPIDPAAWLSHTAALTGALPRYGTSPCSSAITRTSSSSLTSSVPGAPQLEEAPLTVKSDMSAIVRVMQLPDSGLEIRDRMWLKITIANAVIGADVVDWLYTHVEGFKERREARKYASSMLKHGFLRHTVNKITFSEQCYYVFGDLCSNLASLNLNSGSSGASDQDTLAPLPHPSVPWPLGQGYPYQYPGPPPCFPPAYQDPGFSCGSGSAGSQQSEGSKSSGSTRSSHRTPGREERRATGAGGSGSESDHTVPSGSGSTGWWERPVSQLSRGSSPRSQASAVAPGLPPLHPLTKAYAVVGGPPGGPPVRELAAVPPELTGSRQSFQKAMGNPCEFFVDIM |
